According to PubChem BioAssay AID1745850 (National Center for Advancing Translational Sciences (NCATS), 2022):
Among all 2,100 compounds or so, about 260 (12%) were called active. Inconclusive means that the source gave no clear call. Such entries were picked first, then a sample of the others. The call rests on the fitted dose curve; in most records, active means well fitted cell-killing curve with a large enough effect; inconclusive means small, poorly fitted or top-dose-only effect, or effect the other way; inactive means flat fitted curve, though single readings scatter. Potencies of inconclusive entries are doubtful fits and often do not repeat.

Test: Viability Counterscreen for Confirmatory qHTS for Inhibitors of ATXN expression; further: nearly all actives have a fitted effect of over 50% in size
Details: HEK-293 ATXN2-luc cells viability, CellTiter-Fluor, 24 h
Summary of the method: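 Cells with an ATXN2-luciferase reporter were dosed in a dilution series for 24 h at 37 degrees C. Viability was read first with Gly-Phe-AFC at 25 uM final (fluorescence, ex 405/em 540), then SteadyGlo luminescence. Medium-only wells defined 100% inhibition.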
Potency means the concentration at half of the fitted maximal effect.

| Compound | Potency |
| --- | --- |
| COc1cc(-c2ccc3sc(-c4ccsc4)c(C#CCO)c3c2)cc(OC)c1OC | active: 22.4 µM |
| CCOc1ccc(NCc2cccn2-c2nnc(N3CCC(C(=O)NCCCN4CC(C)CC(C)C4)CC3)s2)cc1 (stereo not given) | inconclusive: 6.31 µM [cytotoxic, single point] |
| Cc1ccc2[nH]c(=O)c(CN(CCCN(C)C)C(=O)Nc3cccc(Cl)c3)cc2c1 | inconclusive: 22.4 µM [cytotoxic, single point] |
| CCN(CC)c1ccc(/C=N/NC(=O)c2cccc(S(=O)(=O)N3CCOCC3)c2)c(O)c1 | inconclusive: 3.98 µM [rising, single point] |
| O=C(Cc1coc2cc3c(cc12)CCC3)OCC(=O)N1CCCC1=O | inactive |
| N#Cc1c(Oc2ccc3ccccc3c2)sc(C(=O)c2ccccc2)c1N | inactive |
| Cc1ccc(C)c(CN2CCC(CNC(=O)Nc3ccc(C)c(C)c3)CC2)c1 | inconclusive: 31.6 µM [cytotoxic, single point] |
| C/[N+]([O-])=C\c1cccc(OCCN2CCN(c3ncc(C(F)(F)F)cc3Cl)CC2)c1 | inactive |
| O=C(Nc1ccc[n+](CC(=O)c2cccc3ccccc23)c1)c1ccccc1 | active: 3.16 µM |
| Cc1cc(C(=O)N/N=C/c2cc(Br)cc(Br)c2OC(=O)c2cccc(F)c2)n[nH]1 | inconclusive: 8.91 µM [cytotoxic, full curve] |
| CCc1nc2ccc(C(=O)NCCOc3ccc(OC)cc3)cn2c1N(CCC(C)C)CCN(C)C | inconclusive: 3.98 µM [cytotoxic, single point] |
| C(=C\c1nc(N2CCCC2)c2ccccc2n1)/c1ccccc1 | inconclusive: 7.08 µM [cytotoxic, single point] |
| CS(=O)(=O)Nc1cccc(NC(=O)c2cccc3c(-c4cccc(C(N)=O)c4)coc23)c1 | inconclusive: 28.2 µM [cytotoxic, partial curve] |
| CCCCCCc1cc2cc(S(=O)(=O)c3ccc(F)c(Cl)c3)c(=O)oc2cc1O | inconclusive: 4.47 µM [rising, partial curve] |
| COc1ccc2nc(C)cc(SCC(=O)N/N=C/c3ccc(O)cc3O)c2c1 | inconclusive: 15.8 µM [cytotoxic, partial curve] |
| COc1ccc2c(c1)C(SCC(=O)NCCc1ccc(Cl)cc1)CC(C)(C)O2 (stereo not given) | inactive |
| CCN1CCN(Cc2ccc(NC(=O)c3ccc(C)c(NC(=O)c4nccnc4N)c3)cc2C(F)(F)F)CC1 | inconclusive: 39.8 µM [cytotoxic, single point] |
| Cn1cccc1/C=N/N1CCN(Cc2ccccc2Cl)CC1 | inactive |
| Cn1c(-[n+]2c(-c3ccccc3)cc(-c3ccccc3)cc2-c2ccccc2)nc2c([N+](=O)[O-])cccc21 | inactive |
| Cc1ccc(N/C(N)=N/c2nc(C)cc(N3CCCCC3)n2)c(C)c1 | active: 3.16 µM |
| CCCC/C(C)=N/NC(=O)c1cn(-c2ccccc2)nc1-c1ccccc1 | inactive |
| O=C(NCC1CC1)c1ccc2c(c1)S(=O)(=O)c1cc(Cl)ccc1C2=O | inactive |
| Cc1ccc(C)c(NC(=O)CCC(=O)N/N=C/c2cc([N+](=O)[O-])ccc2O)c1 | inconclusive: 3.55 µM [cytotoxic, single point] |

| Compound | Potency |
| --- | --- |
| Nc1c(C(=O)NCCN2CCOCC2)c2nc3ccccc3nc2n1CCc1ccccc1F | inactive |
| O=c1cc(C(F)(F)F)[nH]c2ccc(C(F)(F)F)cc12 | inactive |
| COc1cccc(CC2(CO)CCCN(Cc3[nH]c4ccc(C)cc4c3C)C2)c1 (stereo not given) | inconclusive: 39.8 µM [cytotoxic, single point] |
| NS(=O)(=O)c1ccc(N2N=C(c3ccccc3)CC2c2cccc(Cl)c2)cc1 (stereo not given) | inconclusive: 35.5 µM [cytotoxic, single point] |
| c1ccc(-c2cccc(-c3ccccn3)n2)nc1 | inconclusive: 3.16 µM [cytotoxic, partial curve, poor fit] |
| CC(C)(C)c1cc[n+](C2=C([O-])c3ccccc3C(=O)/C2=N\S(=O)(=O)c2cccs2)cc1 | inconclusive: 3.16 µM [cytotoxic, partial curve] |
| N#CC1=C(N)N2C(=C(C#N)C1c1ccc(Br)cc1)Nc1ccccc12 (stereo not given) | inconclusive: 3.55 µM [rising, partial curve] |
| CC(=O)Nc1ccc(CNc2nc3cc(-c4ccccc4C)sc3c(=O)n2C)cc1 | inactive |
| O=C(NC(=S)NCc1nc2ccccc2[nH]1)c1ccc(F)cc1 | inactive |
| O=C(CSc1n[nH]c(-c2ccccn2)n1)Nc1ccccc1 | inconclusive: 25.1 µM [cytotoxic, single point] |
| COc1cc(/C=C/c2ccc(/C=C/c3cc(OC)c(OC)c(OC)c3)cc2)cc(OC)c1OC | inconclusive: 39.8 µM [cytotoxic, single point] |
| C[C@@H]1CN([C@H](C)CO)S(=O)(=O)c2ccc(-c3ccc(C#N)cc3)cc2O[C@H]1CN(C)C(=O)Nc1cc(F)ccc1F | inconclusive: 28.2 µM [cytotoxic, single point] |
| O=C(CNC(=O)C1COc2ccccc2O1)N/N=C/c1ccc(O)cc1O (stereo not given) | inactive |
| COc1ccc(C(=O)NNC(=S)NC(=O)c2ccccc2)cc1 | inconclusive: 35.5 µM [cytotoxic, single point] |
| Cc1cc(C)cc(NC(=O)CCc2nc3sc4c(c3c(=O)[nH]2)CCCC4)c1 | inactive |
| Cc1ccc(S(=O)(=O)N2CCc3ccccc3CC2)cc1 | inactive |
| Cc1ccc(SCCC(=O)N/N=C/c2ccccc2O)cc1 | inactive |
| COc1ccc(C2CC(c3ccccc3C(F)(F)F)=NN2c2ccc(S(N)(=O)=O)cc2)cc1 (stereo not given) | inactive |
| Cc1cc2oc3cc(NCCC4CCCN4C)ccc3c(=O)c2cc1C (stereo not given) | inconclusive: 39.8 µM [cytotoxic, single point] |
| O=C(CNc1cccc(C(F)(F)F)c1)Nc1cccc(S(=O)(=O)N2CCCC2)c1 | inactive |
| Oc1c(Cl)cc(Cl)cc1/C=C/c1ccc2cccc(O)c2n1 | inconclusive: 2.82 µM [rising, partial curve] |
| COc1ccc(Cl)cc1S(=O)(=O)N1CCN(C(=O)c2n[nH]c(=O)c3ccccc23)CC1 | inactive |

By substructure, the entries above containing bromine

| Compound | Potency |
| --- | --- |
| Cc1cc(C(=O)N/N=C/c2cc(Br)cc(Br)c2OC(=O)c2cccc(F)c2)n[nH]1 | inconclusive: 8.91 µM [cytotoxic, full curve] |
| N#CC1=C(N)N2C(=C(C#N)C1c1ccc(Br)cc1)Nc1ccccc12 (stereo not given) | inconclusive: 3.55 µM [rising, partial curve] |
